Measurements: the supplement of paper PMC3682954
Several values for one entry are separate records, joined by “and”; a condition that tells them apart may be missing. Identical values can stand only once. Counter-ions that a name gives are not always drawn. ± gives the standard deviation of the averaged measurements. The list shows a part of the results. Repeats are few or missing, and single values can be far off.

System: RAW 264.7
Test: HMGB1-induced TNF-alpha production relative to HMGB1-stimulated control; higher = more TNF-alpha secretion (less inhibition)
Conditions: stimulus: HMGB1 5 ug/ml, 18 h
[1] = compound concentration: 1 ug/ml

SMILES	HMGB1-induced TNF-alpha production (compound concentration: 3 uM)	HMGB1-induced TNF-alpha production [1]
CC(=O)OCC(=O)[C@@]1(OC(C)=O)[C@@H](C)C[C@H]2[C@@H]3C[C@H](F)C4=CC(=O)C=C[C@]4(C)[C@@]3(F)[C@@H](O)C[C@@]21C [Diflorasone Diacetate]	49.3%	–
CCCCC/C=C\C/C=C\C/C=C\C/C=C\CCCC(=O)O [Arachidonic acid]	–	75%
COc1cc(OC)c(C(=O)/C=C/c2ccc(O)c(OC)c2)c(OC)c1 [4-Hydroxy-2',3,4',6'-tetramethoxychalcone]	–	78.8%
CN1C2CCC1CC(OC(=O)C(O)c1ccccc1)C2 (stereo not drawn)	97.7%	–
CC(N)(Cc1ccc(O)c(O)c1)C(=O)O (racemic) [(±)-3-(3,4-dihydroxyphenyl)-2-methyl-DL-alanine]	106%	–
CCN(CC)CCOCCOC(=O)C(CC)(CC)c1ccccc1	70.8%	–
CCCOc1ccc(C(=O)OCCN(CC)CC)cc1N [Proparacaine hydrochloride]	108%	–
Nc1nc2c(ncn2[C@H]2C[C@H](O)[C@@H](COP(=O)(O)O)O2)c(=O)[nH]1 [2'-Deoxyguanosine 5'-monophosphate, sodium salt hydrate]	–	79%
C=CCSCC1Nc2cc(Cl)c(S(N)(=O)=O)cc2S(=O)(=O)N1 (stereo not drawn) [Althiazide]	97.7%	–
C=CCSCC1Nc2cc(Cl)c(S(N)(=O)=O)cc2S(=O)(=O)N1 (stereo not drawn)	86.3%	–
C[S+]([O-])CCC(N)C(=O)O (racemic) [DL-Methionine sulfoxide]	–	77.6%
COCCc1ccc(OCC(O)CNC(C)C)cc1 (racemic) [(±)-Metoprolol (+)-tartrate]	104%	–
NC(=O)c1cccc(N)c1 [3-aminobenzamide]	84.3%	–
NC(CCC(=O)O)C(=O)O (stereo not drawn) [D(-)-Glutamic acid]	–	61.1%
O=c1c(-c2ccc(O[C@@H]3O[C@H](CO)[C@@H](O)[C@H](O)[C@H]3O)cc2)coc2cc(O)cc(O)c12	–	82.3%
CNC(=N)NCCC[C@H](N)C(=O)O [NG-Monomethyl-L-arginine acetate]	114%	–
O=C(O)c1[nH]c(=O)[nH]c(=O)c1[N+](=O)[O-] [5-Nitroorotic acid, potassium salt monohydrate]	–	68.6%
c1ccc(CN(CC2=NCCN2)c2ccccc2)cc1	80.8%	–
c1ccc(CN(CC2=NCCN2)c2ccccc2)cc1 [Antazoline hydrochloride]	71%	–
Nc1ncnc2n[nH]c(Nc3ccc(F)cc3)c12	87.6%	–
CN(C)CC/C=C1/c2ccccc2COc2ccc(CC(=O)O)cc21 [Olopatadine]	94%	–
CN(C)CC/C=C1/c2ccccc2COc2ccc(CC(=O)O)cc21	102%	–
CN(C)CC/C=C1/c2ccccc2COc2ccc(CC(=O)O)cc21 [Olopatadine hydrochloride]	101%	–
O=C(O)C1=CCCN(CCON=C(c2ccccc2)c2ccccc2)C1 [NO-711 hydrochloride]	98.5%	–
Clc1ccc(N2CCN(Cc3cc4ccccn4n3)CC2)cc1	103%	–
CC(C(=O)O)c1ccc(C(=O)c2ccccc2)s1 (stereo not drawn) [Tiaprofenic acid]	61.7%	–
CC(=O)N(CC(O)CN(C(C)=O)c1c(I)c(C(=O)NCC(O)CO)c(I)c(C(=O)NCC(O)CO)c1I)c1c(I)c(C(=O)NCC(O)CO)c(I)c(C(=O)NCC(O)CO)c1I (stereo not drawn) [Iodixanol]	105%	–

SMILES	HMGB1-induced TNF-alpha production (compound concentration: 3 uM)	HMGB1-induced TNF-alpha production [1]
COc1c(N2CCNC(C)C2)c(F)cc2c(=O)c(C(=O)O)cn(C3CC3)c12 (stereo not drawn)	91.8%	–
COc1c(N2CCNC(C)C2)c(F)cc2c(=O)c(C(=O)O)cn(C3CC3)c12 (stereo not drawn) [Gatifloxacin]	95.2 ± 7.8%	–
O=C(c1ccccc1)c1ccc2n1CCC2C(=O)O (stereo not drawn) [Ketorolac tris salt]	103%	–
O=C(c1ccccc1)c1ccc2n1CCC2C(=O)O (stereo not drawn) [Ketorolac tromethamine]	127%	–
CCOC(=O)[C@@](C)(N)Cc1ccc(O)c(O)c1	77.5%	–
CCOC(=O)[C@@](C)(N)Cc1ccc(O)c(O)c1 [Methyldopate hydrochloride]	97.6%	–
OCc1ccccc1O	98.5%	–
CNC(=O)[C@H]1O[C@@H](n2cnc3c(NCc4cccc(I)c4)nc(Cl)nc32)[C@H](O)[C@@H]1O [Chloro-IB-MECA]	69.7%	–
CN1Cc2c(N)cccc2C(c2ccccc2)C1 (stereo not drawn)	88.1%	–
CN1Cc2c(N)cccc2C(c2ccccc2)C1 (stereo not drawn) [Nomifensine maleate]	90.3 ± 30%	–
COc1cccc2c1C(=O)CC(c1ccccc1)O2 (stereo not drawn) [5-Methoxyflavanone]	–	66.4%
FC(F)(F)COCC(F)(F)F	86.7%	–
CCN[C@@H]1C[C@H](N)[C@@H](O[C@H]2OC(CN)=CC[C@H]2N)[C@H](O)[C@H]1O[C@H]1OC[C@](C)(O)[C@H](NC)[C@H]1O	84.3%	–
O=C1NC(=O)C(c2ccccc2)(c2ccccc2)N1 [Phenytoin]	95%	–
O=C1NC(=O)C(c2ccccc2)(c2ccccc2)N1 [5,5-Diphenylhydantoin]	77.8%	–
CC(C)(O)c1ccccc1CC[C@@H](SCC1(CC(=O)O)CC1)c1cccc(/C=C/c2ccc3ccc(Cl)cc3n2)c1	93% and 72.4%	–
CC(C)(O)c1ccccc1CC[C@@H](SCC1(CC(=O)O)CC1)c1cccc(/C=C/c2ccc3ccc(Cl)cc3n2)c1 [Montelukast]	98.4 ± 1.5%	–
COc1cccc(C(=O)NCCN2CCN(c3ccc(Cl)cc3)CC2)c1	75.1%	–
C=C(C)[C@@H]1CC=C(CO)CC1	104%	–
c1ccc(CNc2ncnc3nc[nH]c23)cc1 [Aminopurine, 6-benzyl]	83.1%	–
CC(=O)Oc1cccc(C)c1 [meta-CRESYL ACETATE]	74.7%	–
COc1cc(/C=C/CO)cc(OC)c1O [Sinapyl Alcohol]	–	71.9%
C=CCCCCCCCCC(=O)[O-].C=CCCCCCCCCC(=O)[O-].[Zn+2]	92.5%	–
NC1CCN(c2nc3c(cc2F)c(=O)c(C(=O)O)cn3-c2ccc(F)cc2F)C1 (stereo not drawn) [Tosufloxacin hydrochloride]	74.6%	–
NC1CCN(c2nc3c(cc2F)c(=O)c(C(=O)O)cn3-c2ccc(F)cc2F)C1 (stereo not drawn)	93.4%	–
NC1CCN(c2nc3c(cc2F)c(=O)c(C(=O)O)cn3-c2ccc(F)cc2F)C1 (stereo not drawn) [Tosufloxacin]	91.5%	–
